Laboratory results reported in the supplement of paper PMC10849652.
The other results are listed elsewhere or left out.

By UniProt entry, the sequences of proteins in these tests, tags left out. Where a name states a change or a piece, a line headed by the entry shows the natural chain unless it says otherwise.
UniProt Q9NRR5, whole entry, looked up: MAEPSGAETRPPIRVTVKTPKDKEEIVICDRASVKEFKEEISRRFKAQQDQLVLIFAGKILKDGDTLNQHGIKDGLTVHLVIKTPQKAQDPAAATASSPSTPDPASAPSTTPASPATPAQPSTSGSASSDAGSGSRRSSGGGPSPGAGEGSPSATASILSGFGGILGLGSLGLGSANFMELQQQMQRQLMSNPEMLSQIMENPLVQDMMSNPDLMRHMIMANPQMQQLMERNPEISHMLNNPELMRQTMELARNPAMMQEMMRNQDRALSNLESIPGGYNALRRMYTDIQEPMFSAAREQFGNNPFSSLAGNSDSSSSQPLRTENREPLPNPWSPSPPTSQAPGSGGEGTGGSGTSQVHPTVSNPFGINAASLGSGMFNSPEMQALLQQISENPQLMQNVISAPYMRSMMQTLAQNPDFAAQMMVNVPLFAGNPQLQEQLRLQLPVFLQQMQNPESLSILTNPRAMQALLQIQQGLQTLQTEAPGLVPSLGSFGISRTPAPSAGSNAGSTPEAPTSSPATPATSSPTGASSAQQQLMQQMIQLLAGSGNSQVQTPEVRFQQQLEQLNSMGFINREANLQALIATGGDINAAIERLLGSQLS
UniProt Q96K76: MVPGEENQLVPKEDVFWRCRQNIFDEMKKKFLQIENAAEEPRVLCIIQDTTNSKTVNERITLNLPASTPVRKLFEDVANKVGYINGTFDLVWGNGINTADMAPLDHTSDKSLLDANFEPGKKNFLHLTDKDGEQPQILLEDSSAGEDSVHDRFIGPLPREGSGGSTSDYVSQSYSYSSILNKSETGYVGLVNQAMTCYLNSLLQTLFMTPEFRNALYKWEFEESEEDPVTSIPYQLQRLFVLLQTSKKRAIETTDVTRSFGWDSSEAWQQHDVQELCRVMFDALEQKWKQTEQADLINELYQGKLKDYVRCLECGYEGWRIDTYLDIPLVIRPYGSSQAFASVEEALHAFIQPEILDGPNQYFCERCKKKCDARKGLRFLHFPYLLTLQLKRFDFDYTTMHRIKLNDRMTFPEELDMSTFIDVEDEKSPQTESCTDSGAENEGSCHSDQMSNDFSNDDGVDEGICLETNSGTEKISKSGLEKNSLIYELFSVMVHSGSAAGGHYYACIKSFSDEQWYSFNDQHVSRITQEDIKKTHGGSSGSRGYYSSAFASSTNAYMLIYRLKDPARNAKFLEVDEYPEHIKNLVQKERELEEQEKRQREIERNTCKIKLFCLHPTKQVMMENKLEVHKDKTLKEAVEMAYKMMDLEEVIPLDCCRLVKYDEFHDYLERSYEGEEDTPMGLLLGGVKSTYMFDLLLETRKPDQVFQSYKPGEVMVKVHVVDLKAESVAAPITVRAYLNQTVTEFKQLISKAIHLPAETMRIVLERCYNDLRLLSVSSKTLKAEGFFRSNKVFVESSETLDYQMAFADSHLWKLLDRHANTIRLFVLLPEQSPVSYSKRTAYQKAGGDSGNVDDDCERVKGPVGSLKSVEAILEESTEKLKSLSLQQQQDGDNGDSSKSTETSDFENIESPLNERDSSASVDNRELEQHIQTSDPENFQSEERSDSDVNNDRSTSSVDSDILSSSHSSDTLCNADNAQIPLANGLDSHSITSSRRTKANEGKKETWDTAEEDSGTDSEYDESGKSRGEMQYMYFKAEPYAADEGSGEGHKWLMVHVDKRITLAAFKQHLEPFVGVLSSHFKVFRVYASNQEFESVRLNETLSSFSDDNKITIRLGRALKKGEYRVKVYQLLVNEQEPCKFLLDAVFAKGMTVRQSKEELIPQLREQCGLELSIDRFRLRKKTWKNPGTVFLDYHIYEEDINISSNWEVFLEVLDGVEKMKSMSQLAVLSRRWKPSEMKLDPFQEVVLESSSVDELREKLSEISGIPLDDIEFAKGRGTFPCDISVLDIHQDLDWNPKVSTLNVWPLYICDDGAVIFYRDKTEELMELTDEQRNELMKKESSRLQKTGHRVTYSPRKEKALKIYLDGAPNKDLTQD
UniProt Q93009, whole entry, looked up: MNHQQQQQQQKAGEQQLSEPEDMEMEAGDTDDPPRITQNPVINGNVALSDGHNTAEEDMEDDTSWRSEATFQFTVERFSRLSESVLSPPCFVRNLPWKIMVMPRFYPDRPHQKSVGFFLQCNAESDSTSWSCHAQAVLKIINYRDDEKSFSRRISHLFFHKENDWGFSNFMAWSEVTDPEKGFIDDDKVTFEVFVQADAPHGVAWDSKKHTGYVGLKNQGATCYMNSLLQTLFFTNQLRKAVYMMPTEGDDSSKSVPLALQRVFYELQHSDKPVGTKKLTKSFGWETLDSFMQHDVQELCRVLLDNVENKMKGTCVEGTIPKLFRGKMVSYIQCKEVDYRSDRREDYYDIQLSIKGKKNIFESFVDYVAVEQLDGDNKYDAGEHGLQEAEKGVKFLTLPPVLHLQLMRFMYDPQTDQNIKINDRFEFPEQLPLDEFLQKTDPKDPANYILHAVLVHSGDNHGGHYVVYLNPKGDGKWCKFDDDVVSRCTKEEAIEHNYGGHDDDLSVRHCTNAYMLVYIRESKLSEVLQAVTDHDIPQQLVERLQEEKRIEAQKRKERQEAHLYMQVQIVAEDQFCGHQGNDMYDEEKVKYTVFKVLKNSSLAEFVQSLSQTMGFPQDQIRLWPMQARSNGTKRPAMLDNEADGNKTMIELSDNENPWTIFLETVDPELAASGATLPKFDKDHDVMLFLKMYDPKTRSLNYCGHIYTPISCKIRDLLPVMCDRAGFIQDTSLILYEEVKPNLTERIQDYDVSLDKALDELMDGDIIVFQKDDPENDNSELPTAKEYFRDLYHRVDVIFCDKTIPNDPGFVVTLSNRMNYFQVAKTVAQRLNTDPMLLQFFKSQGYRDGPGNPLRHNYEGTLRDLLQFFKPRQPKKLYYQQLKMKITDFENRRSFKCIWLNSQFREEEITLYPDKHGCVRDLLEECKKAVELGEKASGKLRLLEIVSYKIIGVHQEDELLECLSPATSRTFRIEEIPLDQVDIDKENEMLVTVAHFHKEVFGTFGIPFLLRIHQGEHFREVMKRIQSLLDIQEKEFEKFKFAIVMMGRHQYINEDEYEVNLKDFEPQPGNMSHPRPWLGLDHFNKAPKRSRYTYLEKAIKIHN
UniProt Q969X6: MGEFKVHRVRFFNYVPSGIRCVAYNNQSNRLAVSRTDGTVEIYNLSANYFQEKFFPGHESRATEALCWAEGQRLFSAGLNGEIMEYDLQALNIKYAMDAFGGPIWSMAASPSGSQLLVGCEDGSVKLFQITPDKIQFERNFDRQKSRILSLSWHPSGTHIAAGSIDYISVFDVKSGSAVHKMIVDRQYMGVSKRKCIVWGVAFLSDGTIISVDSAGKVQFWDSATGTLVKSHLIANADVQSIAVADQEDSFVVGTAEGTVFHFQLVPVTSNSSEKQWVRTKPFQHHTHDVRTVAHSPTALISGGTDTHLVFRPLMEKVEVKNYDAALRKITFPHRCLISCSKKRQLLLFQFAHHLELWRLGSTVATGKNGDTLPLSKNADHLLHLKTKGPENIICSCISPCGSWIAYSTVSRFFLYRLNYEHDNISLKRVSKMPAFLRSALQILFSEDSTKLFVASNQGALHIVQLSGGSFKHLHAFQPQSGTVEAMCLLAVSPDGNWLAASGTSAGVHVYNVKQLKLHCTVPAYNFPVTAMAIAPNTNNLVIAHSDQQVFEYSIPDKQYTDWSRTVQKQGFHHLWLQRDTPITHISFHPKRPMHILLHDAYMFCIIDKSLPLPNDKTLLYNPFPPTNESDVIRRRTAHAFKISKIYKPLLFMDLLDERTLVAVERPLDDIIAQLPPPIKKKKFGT
UniProt O60763: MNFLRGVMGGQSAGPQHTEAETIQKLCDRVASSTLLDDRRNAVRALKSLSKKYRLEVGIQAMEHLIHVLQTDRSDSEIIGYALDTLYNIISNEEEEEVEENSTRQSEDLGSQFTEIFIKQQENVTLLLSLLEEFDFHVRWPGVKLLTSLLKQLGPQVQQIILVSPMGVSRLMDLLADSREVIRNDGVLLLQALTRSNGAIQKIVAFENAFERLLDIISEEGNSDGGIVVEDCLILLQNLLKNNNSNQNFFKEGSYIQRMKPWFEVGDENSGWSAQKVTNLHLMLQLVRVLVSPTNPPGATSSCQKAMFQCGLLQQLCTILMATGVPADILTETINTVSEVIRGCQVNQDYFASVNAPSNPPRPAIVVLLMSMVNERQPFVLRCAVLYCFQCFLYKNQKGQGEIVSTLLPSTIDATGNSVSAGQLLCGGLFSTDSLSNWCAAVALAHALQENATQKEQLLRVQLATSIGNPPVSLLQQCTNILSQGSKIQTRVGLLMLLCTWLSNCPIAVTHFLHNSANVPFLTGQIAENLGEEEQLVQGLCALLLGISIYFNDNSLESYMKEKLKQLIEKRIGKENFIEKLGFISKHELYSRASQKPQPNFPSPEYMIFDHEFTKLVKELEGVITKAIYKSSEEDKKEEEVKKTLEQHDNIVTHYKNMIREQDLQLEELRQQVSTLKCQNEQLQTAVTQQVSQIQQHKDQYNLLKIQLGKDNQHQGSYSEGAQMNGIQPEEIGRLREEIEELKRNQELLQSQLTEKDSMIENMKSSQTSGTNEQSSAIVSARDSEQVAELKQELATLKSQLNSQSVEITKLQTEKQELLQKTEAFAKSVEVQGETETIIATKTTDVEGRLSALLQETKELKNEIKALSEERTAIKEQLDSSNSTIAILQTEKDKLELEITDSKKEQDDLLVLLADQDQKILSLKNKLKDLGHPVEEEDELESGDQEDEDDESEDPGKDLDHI
UniProt Q92890: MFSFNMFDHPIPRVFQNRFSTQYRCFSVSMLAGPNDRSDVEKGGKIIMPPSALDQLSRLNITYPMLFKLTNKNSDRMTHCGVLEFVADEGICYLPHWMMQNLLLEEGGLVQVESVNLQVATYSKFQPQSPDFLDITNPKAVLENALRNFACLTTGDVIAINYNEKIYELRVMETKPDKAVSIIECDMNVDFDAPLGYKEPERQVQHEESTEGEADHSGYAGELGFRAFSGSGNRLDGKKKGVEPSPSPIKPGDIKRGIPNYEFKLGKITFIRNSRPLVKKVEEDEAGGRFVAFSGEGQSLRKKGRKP
UniProt P22695: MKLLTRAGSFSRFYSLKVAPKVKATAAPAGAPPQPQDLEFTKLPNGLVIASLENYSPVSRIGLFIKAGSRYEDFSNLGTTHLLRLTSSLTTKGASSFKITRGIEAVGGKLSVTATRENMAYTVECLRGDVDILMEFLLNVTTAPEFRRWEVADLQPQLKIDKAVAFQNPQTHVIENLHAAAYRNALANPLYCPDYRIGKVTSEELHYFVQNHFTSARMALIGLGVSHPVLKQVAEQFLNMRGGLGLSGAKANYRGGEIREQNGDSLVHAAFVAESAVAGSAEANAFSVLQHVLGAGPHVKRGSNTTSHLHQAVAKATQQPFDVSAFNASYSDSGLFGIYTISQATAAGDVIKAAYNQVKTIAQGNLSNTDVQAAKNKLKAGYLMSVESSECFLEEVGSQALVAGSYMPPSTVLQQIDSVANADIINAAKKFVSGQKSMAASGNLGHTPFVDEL

How the values were obtained:
Assay in all cases: log2 fold change, soluble protein after heating vs DMSO (PISA); higher = thermal stabilisation; K562 cells, 10 uM, 30 min; active = over 0.2 and 3.5 SD of the protein, either way, in both replicates (recomputed)
[1] = compound: COC1=CC=C(C=C1)CN2C=CC3=C2C=C(C=C3)C(=O)NO
How it was run: (§1)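 Soluble protein was quantified by TMTpro 16plex LC-MS/MS after channel sums were equalised. It was obtained as the supernatant after 21,000xg for 90 min from pooled aliquots of K562 cells (2×10^6 cells/mL, 10 μM compound, 30 min) heated for 3 min across 48°C-58°C and extracted in PBS with 0.5% NP-40 at 4°C. Thermal stability values are relative to control samples and come from duplicates. They are given as log2 fold changes.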

filanesib = compound: CON(C)C(=O)N1N=C(c2cc(F)ccc2F)S[C@@]1(CCCN)c1ccccc1 [filanesib]
How it was run: as §1

zotarolimus = compound: CO[C@H]1C[C@@H]2CC[C@@H](C)[C@@](O)(O2)C(=O)C(=O)N2CCCC[C@H]2C(=O)O[C@H]([C@H](C)C[C@@H]2CC[C@H](n3cnnn3)[C@H](OC)C2)CC(=O)[C@H](C)/C=C(\C)[C@@H](O)[C@@H](OC)C(=O)[C@H](C)C[C@H](C)/C=C/C=C/C=C/1C [zotarolimus]
How it was run: as §1

idasanutlin = compound: COc1cc(C(=O)O)ccc1NC(=O)[C@@H]1N[C@@H](CC(C)(C)C)[C@](C#N)(c2ccc(Cl)cc2F)[C@H]1c1cccc(Cl)c1F [idasanutlin]
How it was run: as §1

alisertib = compound: COc1cc(Nc2ncc3c(n2)-c2ccc(Cl)cc2C(c2c(F)cccc2OC)=NC3)ccc1C(=O)O [alisertib]
How it was run: as §1

[2] = compound: COc1cc2nc(-c3cc(F)ccc3O)nc(N[C@@H]3CNC[C@H]3C(C)(C)O)c2cc1OC
How it was run: as §1

gefitinib = compound: COc1cc2ncnc(Nc3ccc(F)c(Cl)c3)c2cc1OCCCN1CCOCC1 [gefitinib]
How it was run: as §1

[3] = compound: COc1cccc2cc(-c3nc([C@H]4CC[C@H](C(=O)O)CC4)n4ncnc(N)c34)[nH]c12
How it was run: as §1

lapatinib = compound: CS(=O)(=O)CCNCc1ccc(-c2ccc3ncnc(Nc4ccc(OCc5cccc(F)c5)c(Cl)c4)c3c2)o1 [lapatinib]
How it was run: as §1

pictilisib = compound: CS(=O)(=O)N1CCN(Cc2cc3nc(-c4cccc5[nH]ncc45)nc(N4CCOCC4)c3s2)CC1 [pictilisib]
How it was run: as §1

[4] = compound: CS(=O)(=O)c1ccc(-c2cnc(N)c(C(=O)Nc3ccccc3)n2)cc1
How it was run: as §1

crizotinib = compound: C[C@@H](Oc1cc(-c2cnn(C3CCNCC3)c2)cnc1N)c1c(Cl)ccc(F)c1Cl [crizotinib]
How it was run: as §1

[5] = compound: C[C@@H]1COCCN1C2=NC(=NC(=C2)C3(CC3)S(=O)(=O)C)C4=C5C=CNC5=CC=C4
How it was run: as §1

[6] = compound: C[C@H](C1=CC=C(C=C1)C(=O)NC2=C3C=CNC3=NC=C2)N
How it was run: as §1

duvelisib = compound: C[C@H](Nc1ncnc2nc[nH]c12)c1cc2cccc(Cl)c2c(=O)n1-c1ccccc1 [duvelisib]
How it was run: as §1

gandotinib = compound: Cc1cc(Nc2cc(CN3CCOCC3)c3nc(C)c(Cc4ccc(Cl)cc4F)n3n2)n[nH]1 [gandotinib]
How it was run: as §1

tozasertib = compound: Cc1cc(Nc2cc(N3CCN(C)CC3)nc(Sc3ccc(NC(=O)C4CC4)cc3)n2)n[nH]1 [tozasertib]
How it was run: as §1

[7] = compound: Cc1cc(SCc2sc(-c3ccc(C(F)(F)F)cc3)nc2C)ccc1OCC(=O)O
How it was run: as §1

doramapimod = compound: Cc1ccc(-n2nc(C(C)(C)C)cc2NC(=O)Nc2ccc(OCCN3CCOCC3)c3ccccc23)cc1 [doramapimod]
How it was run: as §1

ispinesib = compound: Cc1ccc(C(=O)N(CCCN)[C@@H](c2nc3cc(Cl)ccc3c(=O)n2Cc2ccccc2)C(C)C)cc1 [ispinesib]
How it was run: as §1

Measured: log2 fold change

UBQLN4 (UniProt Q9NRR5)
inactive: [1] 0.091 | filanesib -0.074 | zotarolimus 0.04 | idasanutlin 0.003 | alisertib -0.043 | [2] -0.043 | gefitinib 0.043 | [3] 0.044 | lapatinib 0.024 | pictilisib 0.031 | [4] -0.084 | crizotinib 0.046 | [5] 0.056 | [6] -0.038 | duvelisib 0.009 | gandotinib 0.024 | tozasertib 0.007 | [7] -0.032 | doramapimod 0.01 | ispinesib 0.027

USP47 (UniProt Q96K76)
inactive: [1] 0.056 | filanesib 0.087 | zotarolimus 0.061 | idasanutlin 0.03 | alisertib -0.148 | [2] -0.019 | gefitinib 0.007 | [3] -0.159 | lapatinib 0.08 | pictilisib -0.007 | [4] 0.01 | crizotinib -0.09 | [5] -0.037 | [6] 0.165 | duvelisib -0.056 | gandotinib -0.022 | tozasertib 0.089 | [7] 0.121 | doramapimod 0.137 | ispinesib -0.081

UBR4 isoform 2 (UniProt Q5T4S7)
inactive: [1] 0.023 | filanesib 0.059 | zotarolimus 0.031 | idasanutlin 0.047 | alisertib -0.088 | [2] -0.005 | gefitinib -0.037 | [3] -0.094 | lapatinib 0.032 | pictilisib -0.02 | [4] 0.024 | crizotinib -0.066 | [5] -0.059 | [6] 0.134 | duvelisib -0.047 | gandotinib -0.024 | tozasertib 0.055 | [7] 0.13 | doramapimod 0.061 | ispinesib -0.085

USP7 (UniProt Q93009)
inactive: [1] 0.034 | filanesib -0.14 | zotarolimus -0.007 | idasanutlin -0.053 | alisertib 0.144 | [2] 0.039 | gefitinib 0.04 | [3] 0.019 | lapatinib -0.029 | pictilisib 0.002 | [4] 0.008 | crizotinib -0.311 | [5] 0.147 | [6] 0.07 | gandotinib -0.157 | [7] 0.146 | doramapimod -0.039 | ispinesib -0.175

UTP4 (UniProt Q969X6)
inactive: [1] -0.05 | filanesib -0.043 | zotarolimus -0.017 | idasanutlin -0.034 | alisertib -0.095 | [2] 0.132 | gefitinib 0 | [3] 0.029 | lapatinib -0.006 | pictilisib 0.035 | [4] -0.013 | crizotinib 0.019 | [5] 0.055 | [6] 0.004 | gandotinib 0.004 | [7] -0.056 | doramapimod 0.012 | ispinesib 0.066

USO1 isoform 2 (UniProt O60763)
inactive: [1] 0.009 | filanesib -0.054 | zotarolimus 0.034 | idasanutlin -0.054 | alisertib -0.037 | [2] -0.031 | gefitinib 0.003 | [3] 0.01 | lapatinib 0.016 | pictilisib 0.014 | [4] 0.001 | crizotinib -0.031 | [5] 0.05 | [6] -0.068 | gandotinib -0.062 | [7] 0.052 | doramapimod -0.019 | ispinesib 0.012

UFD1 isoform 1 (UniProt Q92890)
inactive: filanesib -0.033 | zotarolimus -0.028 | idasanutlin -0.043 | alisertib -0.023 | [2] -0.052 | gefitinib -0.001 | [3] 0.033 | lapatinib 0.018 | pictilisib -0.037 | [4] -0.029 | crizotinib 0.004 | [5] -0.032 | [6] -0.022 | gandotinib -0.099 | [7] -0.04 | doramapimod 0.007 | ispinesib 0.036
active: [1] 0.225

UQCRC2 (UniProt P22695)
inactive: [1] 0.066 | filanesib -0.176 | zotarolimus -0.023 | idasanutlin -0.089 | alisertib -0.039 | [2] 0.018 | gefitinib 0 | [3] 0.031 | lapatinib -0.006 | pictilisib 0.006 | [4] -0.022 | crizotinib 0.054 | [5] 0.053 | [6] -0.05 | duvelisib 0.007 | gandotinib -0.014 | tozasertib -0.001 | [7] -0.003 | doramapimod -0.04 | ispinesib 0.07
